# According to PubChem BioAssay AID504467 (National Center for Advancing Translational Sciences (NCATS), 2011):
# The campaign covered roughly 330,000 compounds. About 7,700 (2.3%) were called active. Inconclusive means that the source gave no clear call. Such entries were picked first, then a sample of the others. Calls come from the whole dose curve; as a rule, active = well fitted inhibition curve with a large enough effect; inconclusive = small, poorly fitted or top-dose-only effect, or effect the other way; inactive = flat fitted curve, though single readings scatter. A potency beside an inconclusive call is a rough fit, not a confirmed value.
# Assay: qHTS screen for small molecules that inhibit ELG1-dependent DNA repair in human embryonic kidney (HEK293T) cells expressing luciferase-tagged ELG1; note: nearly all actives have a fitted effect of over 55% in size
# Conditions: HEK293T ELG1-luciferase reporter, luminescence, 16 h, DNA damage induced by 5-fluorouridine; series mostly up to 46.1 µM
# How it was run: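 Reporter activity after DNA damage by 5-fluorouridine is monitored. Compound-treated cells incubate 16 hr at 37 °C, then ONE-Glo is added for 30 min before luminescence reading.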
# Potency is the fitted concentration of half-maximal effect.
row,Compound,Potency
1,Cc1cc(C)c(C)c(S(=O)(=O)Nc2ccc(C(N)=O)cc2)c1C,"inconclusive: 16.4 µM [inhibitor, partial curve, poor fit]"
2,COc1ccc(CCNC(=O)c2cnc3ccccn3c2=O)cc1,"inconclusive: 16.4 µM [activator, partial curve, poor fit]"
3,CCOC(=O)C1(Cc2ccccc2C)CCCN(C(=O)c2ccc3nccnc3c2)C1 (stereo not given),active: 23.1 µM
4,Cn1c(N)c(C(=O)Nc2ccccc2F)sc1=S,inactive
5,Cc1cc(C)n2nc(CC(=O)NNC(=O)c3ccc(N(C)C)cc3)nc2n1,"inconclusive: 10.3 µM [activator, partial curve, poor fit]"
6,Cc1ccc(CSCc2ccc(C(=O)NCCC(C)C)o2)cc1,"inconclusive: 23.1 µM [inhibitor, single point]"
7,Cc1cc(-c2nnc(CCC(=O)N(C)Cc3cccc4ccccc34)o2)no1,"inconclusive: 20.6 µM [activator, single point]"
8,COc1ccccc1CN1CCNC(=O)C1CC(=O)NCCc1cnccn1 (stereo not given),inactive
9,O=C(Nc1ccc(F)cc1F)c1ccc2ncsc2c1,"inconclusive: 18.3 µM [activator, partial curve]"
10,CC(=O)c1cccc(NC(=O)C2C(c3ccccc3)C2(Cl)Cl)c1 (stereo not given),"inconclusive: 23.1 µM [inhibitor, single point]"
11,Cc1cc(C)c(C(=O)c2ccc(C(=O)N3CCCCC3)cc2)c(C)c1,"inconclusive: 18.3 µM [inhibitor, single point]"
12,Clc1ccccc1CSc1nnc([C@@H]2CCCN2)o1,inactive
13,Cn1c(=O)c2c(nc(Cl)n2Cc2ccc(Cl)c(Cl)c2)n(C)c1=O,inactive
14,Nc1c(-c2ccc(Cl)cc2)cnc2c(-c3ccccc3)cnn12,"inconclusive: 1.46 µM [activator, full curve]"
15,CCn1c(=O)c2cc(C(=O)NCCN(C)C)sc2c2ccccc21,"inconclusive: 20.6 µM [activator, single point]"
16,CCCCNC(=O)c1cc(-c2ccc3c(c2)OCO3)on1,"inconclusive: 5.8 µM [activator, partial curve]"
17,CCc1cc(SC#N)cc(C)c1NC(=O)CCl,"inconclusive: 29.1 µM [inhibitor, single point]"
18,CCOC(=O)C1C(C(=O)OC)=C(C2=CCCCC2)c2ccccc2N1S(=O)(=O)C(F)(F)F (stereo not given),active: 18.3 µM
19,CC(C)Oc1ccc(/C(O)=C2/C(=O)C(=O)N(CCN(C)C)C2c2cccs2)cc1 (stereo not given),"inconclusive: 18.4 µM [activator, single point]"
20,O=C(c1c[nH]c(C(=O)C(Cl)(Cl)Cl)c1)c1ccc(F)cc1Cl,inactive
21,COc1cc(CN(C2CCCCC2C)S(=O)(=O)c2ccc(S(=O)(=O)NC3CC3)cc2)cc(OC)c1OC (stereo not given),active: 18.4 µM
22,O=C1NCCN/C1=C\C(=O)c1ccc(Cl)cc1,"inconclusive: 4.11 µM [activator, full curve]"
23,O=C1CCC/C=C\C[C@@H](CC(=O)N(CCO)Cc2ccccc2)C(=O)N2CCC[C@H]2CO1,"inconclusive: 1.16 µM [inhibitor, single point]"
24,COc1ccc(-c2noc(CSc3nc(-c4ccccc4)cc(=O)[nH]3)n2)cc1OC,inactive

row,Compound,Potency
1,CCc1c(C)nc2c(-c3ccccc3)c(C)nn2c1Nc1ccc(NC(C)=O)cc1,active: 16.4 µM
2,CCOc1ccc(S(=O)(=O)Nc2ccc(C(=O)N3CCCC3)cc2)cc1,inactive
3,CCc1nnc(N/N=C/c2ccc(-c3ccc([N+](=O)[O-])cc3)o2)n1N,inactive
4,COc1ccc(-c2csc(NC(=S)NC(=O)/C=C/c3ccco3)n2)cc1Br,inactive
5,O=C(O)c1cccc(NC(=S)N/N=C/c2ccccc2OCc2ccc(Br)cc2)c1,"inconclusive: 29.1 µM [activator, single point]"
6,N#CC(=C=[N-])C1=C(C#N)C(c2ccccc2F)C([n+]2ccccc2)C(O)(C2CC2)N1 (stereo not given),inactive
7,CCCC[C@H]1COCCS(=O)(=O)N1Cc1cccc(F)c1,inactive
8,Cc1nc2nc(NCc3cccs3)nn2c(C)c1Cl,"inconclusive: 20.6 µM [activator, single point]"
9,O=C(Nc1ccc(C(=O)N2CCCC2)cc1)c1ccccc1F,"inconclusive: 20.6 µM [activator, partial curve]"
10,COc1ccc(/C=C/c2onc(C)c2S(=O)(=O)N2CCC(C(=O)N3CCCCCC3)CC2)cc1,active: 2.59 µM
11,CO/C=C\C=C/c1nnn(-c2ccc(Cl)cc2)n1,"inconclusive: 20.6 µM [activator, single point]"
12,CN(CC(=O)NC(=O)Nc1ccccc1F)Cc1ccccc1,"inconclusive: 29.1 µM [activator, single point]"
13,O=C1OCCN1C(=O)[C@H]1[C@H](c2ccccc2)C(c2cccc(Cl)c2)=NN1c1ccc(Br)cc1,"inconclusive: 23.1 µM [activator, single point]"
14,O=C(NC(=O)N1CCN(c2ccc([N+](=O)[O-])cn2)CC1)c1ccccc1F,"inconclusive: 13 µM [inhibitor, partial curve]"
15,Cc1ccc(CNC(=O)C2CC3Cn4c(nc5ccccc54)C3N2C)o1 (stereo not given),inactive
16,CC(C)(C)SCCNC(=O)c1cccc([N+](=O)[O-])c1,"inconclusive: 29.1 µM [activator, single point]"
17,CCCc1cc(C(=O)N2CCCC(CO)(CCCc3ccccc3)C2)n(C)n1 (stereo not given),"inconclusive: 29.1 µM [inhibitor, single point]"
18,Oc1c(N=Nc2ccccc2)sc2ccccc12,"inconclusive: 1.83 µM [activator, full curve]"
19,COc1ccc(NC(C)C(=O)N/N=C/c2cc(Br)ccc2OC)cc1 (stereo not given),"inconclusive: 0.58 µM [inhibitor, single point]"
20,O=C(O)CCSCC(=O)c1ccc2c(c1)OCCO2,"inconclusive: 16.4 µM [activator, single point]"
21,COc1cccc(C(=O)Nc2ccc3c(c2)OCO3)c1OC,"inconclusive: 16.4 µM [activator, partial curve]"
22,O=C(N/N=C/c1ccc(N2CCOCC2)cc1)c1ccc(O)cc1,"inconclusive: 23.1 µM [activator, partial curve, poor fit]"
23,COc1cc(CN2CCC(Cc3ccccc3)CC2)c([N+](=O)[O-])cc1OC,"inconclusive: 8.2 µM [inhibitor, partial curve, poor fit]"
24,Cc1ccc2cccc(S(=O)(=O)N3CCN(c4cccc(Cl)c4)CC3)c2n1,"inconclusive: 20.6 µM [inhibitor, single point]"

# Ordered by length of the SMILES (rising): some entries from above
row,Compound,Potency
8,Cc1nc2nc(NCc3cccs3)nn2c(C)c1Cl,"inconclusive: 20.6 µM [activator, single point]"
11,CO/C=C\C=C/c1nnn(-c2ccc(Cl)cc2)n1,"inconclusive: 20.6 µM [activator, single point]"
21,COc1cccc(C(=O)Nc2ccc3c(c2)OCO3)c1OC,"inconclusive: 16.4 µM [activator, partial curve]"
19,COc1ccc(NC(C)C(=O)N/N=C/c2cc(Br)ccc2OC)cc1 (stereo not given),"inconclusive: 0.58 µM [inhibitor, single point]"

# Following part.

row,Compound,Potency
1,CCC(Sc1nc(N)c(NC(=O)c2ccc(Br)o2)c(=O)[nH]1)C(=O)O (stereo not given),inactive
2,CCn1c(C)cc(/C=C2/SC(=O)N(CC(=O)N3CCCC3)C2=O)c1C,"inconclusive: 29.1 µM [activator, single point]"
3,COc1cc(C(=O)Oc2ccc(/C=N/NC(=O)c3ccncc3)cc2)cc(OC)c1OC,inactive
4,CN(C)c1ccc(C(CNC(=O)c2ccccc2Br)c2c[nH]c3ccccc23)cc1 (stereo not given),"inconclusive: 16.4 µM [inhibitor, single point]"
5,CC(Oc1cccnc1[N+](=O)[O-])C(=O)Nc1ccc(Cl)cn1 (stereo not given),inactive
6,CCCc1nc2c(sc3nc4c(cc32)COC(C)(C)C4)c(=O)o1,inactive
7,COc1ccc(N2CCN(C(=O)c3nc4nc(C)cc(C)n4n3)CC2)cc1,inactive
8,CCOC(=O)c1cccnc1SCC(=O)Nc1ccc(C)cc1,"inconclusive: 20.6 µM [activator, partial curve]"
9,COc1cccc(CNC(=O)c2cc(COc3c(F)cccc3F)on2)c1,inactive
10,CCN1CCN(c2ccc(NC(=O)c3ccccc3F)cc2Cl)CC1,"inconclusive: 20.6 µM [activator, partial curve]"
11,O=C(NCc1ccccc1)c1cc2ccc(O)cc2oc1=O,"inconclusive: 17.8 µM [activator, partial curve, poor fit]"
12,N/C(=N/OC(=O)c1ccc(Cl)cc1)c1ncc([N+](=O)[O-])s1,"inconclusive: 0.651 µM [inhibitor, single point]"
13,O=C(NCc1ccco1)c1sc2ccccc2c1Cl,"inconclusive: 20.6 µM [activator, partial curve]"
14,COc1ccc(S(=O)(=O)N2CCN(C(=O)Cc3ccsc3)CC2)cc1,inactive
15,Cc1cc(Br)c(NC(=O)COC(=O)C2CCCCC2)c(Br)c1,"inconclusive: 29.1 µM [activator, single point]"
16,O=C(NCCc1c[nH]c2ccccc12)C(=O)NCC(c1ccco1)N1CCN(c2ccccc2F)CC1 (stereo not given),"inconclusive: 18.4 µM [inhibitor, single point]"
17,COc1ccc(C(=O)NC(=S)Nc2cccc(Cl)c2N2CCOCC2)cc1[N+](=O)[O-],"inconclusive: 20 µM [inhibitor, partial curve, poor fit]"
18,CCc1cc[n+](-c2nc3ccccc3nc2[N-]S(=O)(=O)c2ccc(Br)s2)cc1,"inconclusive: 18.4 µM [activator, partial curve, poor fit]"
19,O=C(NNC(=O)c1ccccn1)c1cccc([N+](=O)[O-])c1,active: 11.6 µM
20,CCOC(=O)Cc1nnc(Nc2ccc(C)cc2C)c2ccccc12,"inconclusive: 10.3 µM [inhibitor, partial curve, poor fit]"
21,CCc1ccc(-c2nc(CN3CCC(C(=O)NCc4ccco4)CC3)c(C)o2)cc1,inactive
22,COc1cc(C(=O)NC2CCN(C)CC2)ccc1Nc1ncc2c(n1)N(C1CCC(O)CC1)CCC(=O)N2C (stereo not given),"inconclusive: 13 µM [activator, partial curve, poor fit]"
